Experimental data as given in patent US11236123 (dated 2022).

Key:
[1] = general procedure: hybrid (solid and solution phase) peptide synthesis; psWang handle on resin for the C-terminal fragment; DIC/OxymaPure (SPPS); PyBOP/DIPEA (fragment coupling in solution); details: for crude HPLC purity: 254 nm
[2] = general procedure: hybrid (solid and solution phase) peptide synthesis; CTC resin; DIC/OxymaPure (SPPS); PyBOP/DIPEA (fragment coupling in solution); details: whole synthesis, on resin loading
[3] = general procedure: hybrid (solid and solution phase) peptide synthesis; CTC resin with psWang handle; DIC/OxymaPure (SPPS); PyBOP/DIPEA (fragment coupling in solution); details: whole synthesis, on resin loading

Substance | crude HPLC purity ([1]; whole synthesis) | crude yield [2] [%] | crude yield [3] | crude HPLC purity ([1]; late stage modification step) [%] | final HPLC purity ([1]; purification step, HPLC) [%]
Boc-His-(2-15)-Gly-OH | 92% | 81 | – | – | –
H-Gln-(18-31)-psWang | ca 85% | – | ca 50% | – | –
Liraglutide | – | – | – | 71 | >99
